Series [1] can be described thus: Lipophilicity, log D of the compound at pH 7.4. The note with it: buffer.
Series [2] can be described thus: Solubility of the compound in FaSSIF. The note with it: simulated gi fluid.
Series [3] is described as follows: Solubility of the compound in FeSSIF. The note with it: simulated gi fluid.
Series [4] in a line: physchem. The note with it: buffer.

Each structure is given as a SMILES string. ≈ marks a conversion by molar mass, not a printed value.

`Cc1nc(C)n(CC(=O)N2CCN(c3sc(C(F)(F)F)nc3-c3nc4ccc(-c5noc(C)n5)cc4[nH]3)C[C@H]2C)n1`: in series [1], the logD worked out at 3.6. The solubility in series [2] was 128 µg/mL (≈ 218 µM); in series [3] it was 742 µg/mL (≈ 1260 µM); in series [4] it was 83 µg/mL (≈ 141 µM).

A word on the logD: it is lipophilicity at a set pH, counting ionised and neutral species. Low values mean a more hydrophilic compound, high ones a more lipophilic compound. By solubility is commonly meant the concentration that dissolves in the medium under given conditions. Read a high solubility as much dissolved substance.

The values are drawn from ChEMBL document CHEMBL5126609, “Design, Synthesis, and Pharmacological Evaluation of Benzimidazolo-thiazoles as Potent CXCR3 Antagonists with Therapeutic Potential in Autoimmune Diseases: Discovery of ACT-672125” (J Med Chem, 2022).
